The chains behind the UniProt entries cited, without tags or fusion partners. Residues count along the entry.
UniProt P63010, residues 700-937: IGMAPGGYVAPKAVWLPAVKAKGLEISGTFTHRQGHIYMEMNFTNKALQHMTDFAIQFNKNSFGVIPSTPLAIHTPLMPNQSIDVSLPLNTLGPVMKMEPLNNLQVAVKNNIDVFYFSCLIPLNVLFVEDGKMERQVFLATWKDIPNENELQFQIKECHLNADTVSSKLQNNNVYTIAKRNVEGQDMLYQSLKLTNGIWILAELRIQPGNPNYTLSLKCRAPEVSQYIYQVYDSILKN
UniProt Q14677: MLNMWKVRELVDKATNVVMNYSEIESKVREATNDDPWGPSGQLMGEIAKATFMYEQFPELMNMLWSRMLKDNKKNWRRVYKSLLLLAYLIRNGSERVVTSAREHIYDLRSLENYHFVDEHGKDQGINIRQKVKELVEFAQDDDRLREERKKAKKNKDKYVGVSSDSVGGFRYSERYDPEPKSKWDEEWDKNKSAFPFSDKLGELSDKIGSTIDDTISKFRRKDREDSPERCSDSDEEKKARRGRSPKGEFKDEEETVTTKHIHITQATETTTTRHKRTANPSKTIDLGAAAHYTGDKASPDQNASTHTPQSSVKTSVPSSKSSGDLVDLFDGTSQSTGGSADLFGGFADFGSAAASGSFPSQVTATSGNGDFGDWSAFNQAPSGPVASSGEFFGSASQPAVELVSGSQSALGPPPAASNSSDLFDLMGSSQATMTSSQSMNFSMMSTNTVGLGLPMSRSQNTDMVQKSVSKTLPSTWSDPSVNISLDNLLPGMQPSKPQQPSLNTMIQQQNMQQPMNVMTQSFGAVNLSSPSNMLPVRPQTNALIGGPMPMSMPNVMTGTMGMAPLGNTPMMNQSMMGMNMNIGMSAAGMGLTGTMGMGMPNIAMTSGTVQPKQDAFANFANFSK
UniProt Q15811, residues 1-1220: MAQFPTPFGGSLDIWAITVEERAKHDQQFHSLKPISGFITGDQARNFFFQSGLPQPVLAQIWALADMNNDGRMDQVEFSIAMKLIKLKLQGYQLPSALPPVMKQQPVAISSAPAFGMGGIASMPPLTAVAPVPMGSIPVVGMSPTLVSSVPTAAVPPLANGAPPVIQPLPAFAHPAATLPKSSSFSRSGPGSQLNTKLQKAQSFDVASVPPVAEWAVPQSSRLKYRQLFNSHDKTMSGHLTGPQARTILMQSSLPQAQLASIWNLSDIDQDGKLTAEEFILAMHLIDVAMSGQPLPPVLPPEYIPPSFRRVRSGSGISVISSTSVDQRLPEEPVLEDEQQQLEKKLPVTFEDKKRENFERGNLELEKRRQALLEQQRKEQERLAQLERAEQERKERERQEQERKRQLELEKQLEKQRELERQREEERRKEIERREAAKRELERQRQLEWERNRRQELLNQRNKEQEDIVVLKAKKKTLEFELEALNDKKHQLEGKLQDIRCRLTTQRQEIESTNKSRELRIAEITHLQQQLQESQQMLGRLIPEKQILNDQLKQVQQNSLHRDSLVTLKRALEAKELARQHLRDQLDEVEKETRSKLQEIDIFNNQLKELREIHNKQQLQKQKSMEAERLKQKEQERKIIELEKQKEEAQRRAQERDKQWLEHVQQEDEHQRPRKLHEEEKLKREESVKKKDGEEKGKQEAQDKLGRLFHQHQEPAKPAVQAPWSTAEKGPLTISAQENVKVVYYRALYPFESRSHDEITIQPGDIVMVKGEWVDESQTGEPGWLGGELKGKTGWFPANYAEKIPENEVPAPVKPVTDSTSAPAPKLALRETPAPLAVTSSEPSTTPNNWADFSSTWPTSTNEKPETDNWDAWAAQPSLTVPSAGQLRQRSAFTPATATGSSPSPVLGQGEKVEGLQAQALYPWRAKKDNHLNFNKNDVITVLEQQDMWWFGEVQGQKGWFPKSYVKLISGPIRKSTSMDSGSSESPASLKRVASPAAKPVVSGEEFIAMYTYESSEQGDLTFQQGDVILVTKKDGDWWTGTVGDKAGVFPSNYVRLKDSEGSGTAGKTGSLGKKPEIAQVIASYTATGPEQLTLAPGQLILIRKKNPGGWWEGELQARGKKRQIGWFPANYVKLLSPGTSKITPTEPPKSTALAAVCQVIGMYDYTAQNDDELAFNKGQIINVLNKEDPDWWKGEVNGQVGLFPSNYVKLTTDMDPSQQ
UniProt Q9Y5X1: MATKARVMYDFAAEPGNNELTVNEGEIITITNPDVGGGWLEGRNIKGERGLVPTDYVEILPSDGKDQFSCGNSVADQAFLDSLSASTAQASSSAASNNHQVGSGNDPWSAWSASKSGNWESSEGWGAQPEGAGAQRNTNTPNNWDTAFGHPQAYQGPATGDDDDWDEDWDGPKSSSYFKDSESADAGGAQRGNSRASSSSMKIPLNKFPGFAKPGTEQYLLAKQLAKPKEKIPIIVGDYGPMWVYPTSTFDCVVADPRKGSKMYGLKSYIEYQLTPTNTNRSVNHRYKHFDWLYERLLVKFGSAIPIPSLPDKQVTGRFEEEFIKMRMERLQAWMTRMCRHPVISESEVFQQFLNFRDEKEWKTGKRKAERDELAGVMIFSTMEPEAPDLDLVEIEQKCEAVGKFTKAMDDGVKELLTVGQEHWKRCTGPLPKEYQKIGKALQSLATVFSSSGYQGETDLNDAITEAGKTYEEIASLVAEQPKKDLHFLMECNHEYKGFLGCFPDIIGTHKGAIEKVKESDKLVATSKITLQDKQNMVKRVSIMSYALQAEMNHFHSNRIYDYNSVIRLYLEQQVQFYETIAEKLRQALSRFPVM

According to paper PMC1540706:

Target: GST-human-β2-appendage (700–937) (human) (UniProt P63010)
Test: affinity purification with mass spectrometry; 30–100 μg GST-appendage on glutathione-sepharose beads in HeLa cell extract (150 mM NaCl, 20 mM HEPES pH 7.4, 2 mM DTT, NP40, 0.1% Tx-100), 1 h at 4 °C, 4 washes; Coomassie bands read by LC-MS/MS; only the target purified

| Substance | binding |
| --- | --- |
| Hsc70 (from UniProt P11142-1 1-646) | binds |
| Tom1 (from UniProt O60784-1 1-492) | binds |
| epsinR (from UniProt Q14677 1-625) | binds |
| intersectin1 (from UniProt Q15811-2 1-1220) | binds |
| sorting-nexin9 (from UniProt Q9Y5X1 1-595) | binds |

Results are given in words; binding and its absence hold for the method and conditions named. Binding seen in cells or lysates may run through a third protein. A yes stands for co-enrichment or nearness to the bait. Other partners may have been found.
